No constants are given. Whether binding was seen depends on the method and setting. In cells and extracts the contact can be indirect. Some binding calls cover weakened binding; strength is not graded here.
Assays:
[1] = target: recombinant human galectin-1 (human) (UniProt P09382); test: co-IP; galectin-1 knock-down cells (MDA-MB-231 and Hs578T, Gal-1 sh1 and sh2) treated with recombinant human galectin-1 (300 ng/ml) for 48 h; lysates immunoprecipitated with anti-galectin-1 antibody, western blot with anti-integrin β1 antibody; only the target purified
[2] = target: galectin-1 (human (endogenous in MDA-MB-231 and Hs578T)) (UniProt P09382); test: cross-linking + co-IP; cells incubated with 1 mM BS3 for 20 min to cross-link galectin-1 to cell surface proteins; lysates immunoprecipitated with anti-galectin-1 antibody, western blot with anti-integrin β1 antibody; MDA-MB-231 and Hs578T control shRNA and galectin-1 shRNA cells; also control cells treated beforehand with anti-galectin-1 antibodies (2 μg/ml, 48 h)

Amino acid sequences for entries named in this document (tags omitted). A change or cut given only in a name is not applied to a line headed by its entry.
UniProt P05556: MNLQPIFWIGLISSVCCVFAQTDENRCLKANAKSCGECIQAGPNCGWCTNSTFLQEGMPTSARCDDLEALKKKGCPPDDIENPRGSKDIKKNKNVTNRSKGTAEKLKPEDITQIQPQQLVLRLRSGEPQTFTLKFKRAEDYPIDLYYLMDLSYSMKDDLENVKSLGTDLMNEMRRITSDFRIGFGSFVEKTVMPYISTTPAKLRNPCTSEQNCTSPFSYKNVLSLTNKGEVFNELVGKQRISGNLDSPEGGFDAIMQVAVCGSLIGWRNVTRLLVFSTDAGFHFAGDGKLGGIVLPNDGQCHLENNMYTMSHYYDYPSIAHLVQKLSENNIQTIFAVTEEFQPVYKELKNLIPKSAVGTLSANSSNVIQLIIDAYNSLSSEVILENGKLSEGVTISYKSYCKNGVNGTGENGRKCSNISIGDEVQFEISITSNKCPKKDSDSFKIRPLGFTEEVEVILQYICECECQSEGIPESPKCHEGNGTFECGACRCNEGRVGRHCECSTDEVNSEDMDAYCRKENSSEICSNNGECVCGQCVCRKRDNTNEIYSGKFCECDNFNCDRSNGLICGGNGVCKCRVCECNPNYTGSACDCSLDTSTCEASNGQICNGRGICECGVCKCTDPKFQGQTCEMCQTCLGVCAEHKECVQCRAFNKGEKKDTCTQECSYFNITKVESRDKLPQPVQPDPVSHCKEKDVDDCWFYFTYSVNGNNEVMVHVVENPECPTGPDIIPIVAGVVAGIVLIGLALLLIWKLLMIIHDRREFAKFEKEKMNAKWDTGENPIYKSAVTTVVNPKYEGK

- binding [1]: binds
- binding [2]: binds
Substance: integrin β1 (from UniProt P05556 21-798) (receptor)
